Measurements from patent publication US20200190135A1 (ChromaCon AG, priority 2016, published 2020).
Some peptides are written in HELM: one residue between dots, names in brackets for other building blocks, links after the first $.

Experiment: peptide synthesis
Settings: late stage modification step

Work on “PEPTIDE1{[FBz-AEE-Gly].F.G.[CysCAM].F.[dW].K.T.L.[GABA].[B21C7-EtNH]}$$$$V2.0” yielded a step yield of 66%.
